According to paper PMC5013389:
These are yes or no findings as the source states them, for the method shown. In cells and extracts the contact can be indirect. Some entries that bind do so weakly or less than the wild type. Tags and fused reporters may be left off the sequences shown.

Protein sequences, listed by entry. Tags and fused reporters are not part of them.
UniProt O14733: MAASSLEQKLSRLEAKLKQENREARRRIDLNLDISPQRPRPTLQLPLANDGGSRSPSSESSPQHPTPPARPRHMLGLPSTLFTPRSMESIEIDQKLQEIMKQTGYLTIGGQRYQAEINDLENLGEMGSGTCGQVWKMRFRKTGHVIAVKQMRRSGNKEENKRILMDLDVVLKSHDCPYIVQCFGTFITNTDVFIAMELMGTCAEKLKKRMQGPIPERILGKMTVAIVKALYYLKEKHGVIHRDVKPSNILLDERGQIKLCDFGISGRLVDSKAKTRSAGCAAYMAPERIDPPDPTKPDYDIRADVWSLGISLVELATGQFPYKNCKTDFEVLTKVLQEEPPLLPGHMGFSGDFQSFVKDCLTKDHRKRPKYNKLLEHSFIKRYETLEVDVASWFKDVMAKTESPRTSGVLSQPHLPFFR

T1: MKK4-V1 (full length MKK4 fused to the V1 fragment of Venus YFP) (UniProt P45985)
T1 sequence: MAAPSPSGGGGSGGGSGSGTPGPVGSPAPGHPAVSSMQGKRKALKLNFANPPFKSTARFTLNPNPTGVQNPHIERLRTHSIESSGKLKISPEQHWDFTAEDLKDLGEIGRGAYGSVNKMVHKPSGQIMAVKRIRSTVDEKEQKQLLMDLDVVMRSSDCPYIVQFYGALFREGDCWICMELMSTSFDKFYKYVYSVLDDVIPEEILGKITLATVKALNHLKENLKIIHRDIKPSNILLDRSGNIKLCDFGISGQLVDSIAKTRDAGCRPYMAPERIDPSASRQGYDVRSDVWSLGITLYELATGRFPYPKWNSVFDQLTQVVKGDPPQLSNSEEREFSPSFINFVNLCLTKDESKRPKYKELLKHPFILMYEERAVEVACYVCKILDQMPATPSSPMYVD

T2: MKK6-V1 (full length MKK6 fused to the V1 fragment of Venus YFP) (UniProt P52564)
T2 sequence: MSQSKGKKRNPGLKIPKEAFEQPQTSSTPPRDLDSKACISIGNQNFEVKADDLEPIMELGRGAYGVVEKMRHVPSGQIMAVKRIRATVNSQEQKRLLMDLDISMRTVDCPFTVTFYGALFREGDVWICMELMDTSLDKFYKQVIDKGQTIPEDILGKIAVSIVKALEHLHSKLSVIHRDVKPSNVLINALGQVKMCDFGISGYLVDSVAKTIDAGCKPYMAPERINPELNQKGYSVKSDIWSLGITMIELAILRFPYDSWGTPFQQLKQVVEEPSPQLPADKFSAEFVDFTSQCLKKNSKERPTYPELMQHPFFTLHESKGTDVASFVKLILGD


How the values were obtained:
[1] = biological target: MKK7-V1 (full length MKK7 fused to the V1 fragment of Venus YFP) (UniProt O14733); experiment: split reporter; Venus YFP PCA in co-transfected HeLa cells, signal quantified by flow cytometry 24 h after transfection; serum-starved cells with or without IL-1 (0.1 nM, 60 min)
[2] = biological target: MKK7-V1 (full length MKK7 fused to the V1 fragment of Venus YFP) (UniProt O14733); experiment: split reporter; Venus YFP protein-fragment complementation assay (PCA): MKK-V1 and TRIB-V2 constructs (full length or truncated) co-transfected into HeLa cells, fluorescent complexes seen by fluorescence microscopy
[3] = biological target: T1, MKK4-V1 (full length MKK4 fused to the V1 fragment of Venus YFP); experiment: as above
[4] = biological target: T2, MKK6-V1 (full length MKK6 fused to the V1 fragment of Venus YFP); experiment: as above
[5] = biological target: T1, MKK4-V1 (full length MKK4 fused to the V1 fragment of Venus YFP); experiment: split reporter; competitive PCA in HeLa cells: MKK-V1 and TRIB-V2 co-transfected with an increasing dose of an untagged competitor plasmid (ERK, p38 or TRIB); mean fluorescence by flow cytometry 24 h after transfection; doses are plasmid amounts relative to TRIB-V2
[6] = biological target: RelA-V1 (NF-κB/RelA fused to the V1 fragment of Venus YFP), Q04206; experiment: split reporter; Venus YFP PCA in co-transfected HeLa cells, signal quantified by flow cytometry 24 h after transfection; serum-starved cells with or without IL-1 (0.1 nM, 60 min); details: remark: other sources report otherwise

Row | binding [1] | binding [2] | binding [3] | binding [4] | binding [5] | binding [6] | Binder
1 |  |  |  |  | binds |  | untagged TRIB-1 (protein, UniProt Q96RU8 1-372) MRVGPVRSAMSGASQPRGPALLFPATRGVPAKRLLDADDAAAVAAKCPRLSECSSPPDYLSPPGSPCSPQPPPAAPGAGGGSGSAPGPSRIADYLLLPLAEREHVSRALCIHTGRELRCKVFPIKHYQDKIRPYIQLPSHSNITGIVEVILGETKAYVFFEKDFGDMHSYVRSRKRLREEEAARLFKQIVSAVAHCHQSAIVLGDLKLRKFVFSTEERTQLRLESLEDTHIMKGEDDALSDKHGCPAYVSPEILNTTGTYSGKAADVWSLGVMLYTLLVGRYPFHDSDPSALFSKIRRGQFCIPEHISPKARCLIRSLLRREPSERLTAPEILLHPWFESVLEPGYIDSEIGTSDQIVPEYQEDSDISSFFC
2 |  |  |  |  | binds |  | untagged TRIB-2 (protein, UniProt Q92519 1-343) MNIHRSTPITIARYGRSRNKTQDFEELSSIRSAEPSQSFSPNLGSPSPPETPNLSHCVSCIGKYLLLEPLEGDHVFRAVHLHSGEELVCKVFDISCYQESLAPCFCLSAHSNINQITEIILGETKAYVFFERSYGDMHSFVRTCKKLREEEAARLFYQIASAVAHCHDGGLVLRDLKLRKFIFKDEERTRVKLESLEDAYILRGDDDSLSDKHGCPAYVSPEILNTSGSYSGKAADVWSLGVMLYTMLVGRYPFHDIEPSSLFSKIRRGQFNIPETLSPKAKCLIRSILRREPSERLTSQEILDHPWFSTDFSVSNSAYGAKEVSDQLVPDVNMEENLDPFFN

Further lines, the binder ahead of its results:

Row | Binder | binding [1] | binding [2] | binding [3] | binding [4] | binding [5] | binding [6]
3 | TRIB1-V2 (full length tribbles-1 fused to the V2 fragment of Venus YFP) (protein, UniProt Q96RU8 1-372) MRVGPVRSAMSGASQPRGPALLFPATRGVPAKRLLDADDAAAVAAKCPRLSECSSPPDYLSPPGSPCSPQPPPAAPGAGGGSGSAPGPSRIADYLLLPLAEREHVSRALCIHTGRELRCKVFPIKHYQDKIRPYIQLPSHSNITGIVEVILGETKAYVFFEKDFGDMHSYVRSRKRLREEEAARLFKQIVSAVAHCHQSAIVLGDLKLRKFVFSTEERTQLRLESLEDTHIMKGEDDALSDKHGCPAYVSPEILNTTGTYSGKAADVWSLGVMLYTLLVGRYPFHDSDPSALFSKIRRGQFCIPEHISPKARCLIRSLLRREPSERLTAPEILLHPWFESVLEPGYIDSEIGTSDQIVPEYQEDSDISSFFC | binds | binds | binds | binds | binds | 
4 | TRIB2-V2 (full length tribbles-2 fused to the V2 fragment of Venus YFP) (protein, UniProt Q92519 1-343) MNIHRSTPITIARYGRSRNKTQDFEELSSIRSAEPSQSFSPNLGSPSPPETPNLSHCVSCIGKYLLLEPLEGDHVFRAVHLHSGEELVCKVFDISCYQESLAPCFCLSAHSNINQITEIILGETKAYVFFERSYGDMHSFVRTCKKLREEEAARLFYQIASAVAHCHDGGLVLRDLKLRKFIFKDEERTRVKLESLEDAYILRGDDDSLSDKHGCPAYVSPEILNTSGSYSGKAADVWSLGVMLYTMLVGRYPFHDIEPSSLFSKIRRGQFNIPETLSPKAKCLIRSILRREPSERLTSQEILDHPWFSTDFSVSNSAYGAKEVSDQLVPDVNMEENLDPFFN | binds | binds | binds | binds | binds | 
5 | IκBα-V2 (IκBα fused to the V2 fragment of Venus YFP), P25963 1-317 (protein) MFQAAERPQEWAMEGPRDGLKKERLLDDRHDSGLDSMKDEEYEQMVKELQEIRLEPQEVPRGSEPWKQQLTEDGDSFLHLAIIHEEKALTMEVIRQVKGDLAFLNFQNNLQQTPLHLAVITNQPEIAEALLGAGCDPELRDFRGNTPLHLACEQGCLASVGVLTQSCTTPHLHSILKATNYNGHTCLHLASIHGYLGIVELLVSLGADVNAQEPCNGRTALHLAVDLQNPDLVSLLLKCGADVNRVTYQGYSPYQLTWGRPSTRIQQQLGQLTLENLQMLPESEDEESYDTESEFTEFTEDELPYDDCVFGGQRLTL |  |  |  |  |  | binds
